The values below come from the supplement of paper PMC11542785.

SMILES strings stand for the structures. Counter-ions that a name gives are not always drawn. This is one part of the list. Single values are uncertain, as repeats are few or missing.

The subject of this assay is Drosophila melanogaster DPAGT1 (Alg7) RNAi eye model. Nature of the assay: eye size Z-score vs DMSO-treated DPAGT1 model flies; higher = larger eye (suppression of DPAGT1 phenotype). Particulars: 5 uM.

For the compound `O=C1C(O)=C([C@H]2CC[C@H](c3ccc(Cl)cc3)CC2)C(=O)c2ccccc21` [Atovaquone], the “eye size Z-score” value was found to be 1.12.

As to `Cc1ccccc1C(OCCN(C)C)c1ccccc1` (configuration not stated) [Orphenadrine hydrochloride], the “eye size Z-score” value is -0.38.

As for `C#C[C@]1(O)CC[C@H]2[C@@H]3CCC4=C(CCC(=O)C4)[C@H]3CC[C@@]21C` [Norethynodrel], the “eye size Z-score” value was -0.26.

As for `NS(=O)(=O)c1cc2c(cc1Cl)NC(CC1CCCC1)NS2(=O)=O` (configuration not stated) [Cyclopenthiazide], the “eye size Z-score” value worked out at 0.15.

As to `CC(C)(C)NCC(O)c1cc(O)cc(O)c1` (configuration not stated) [Terbutaline hemisulfate], the “eye size Z-score” value was -0.73.

Turning to `CCOC(=O)[N-]c1c[n+](N2CCOCC2)no1` [Molsidomine], the “eye size Z-score” value amounted to 0.57.

Consider `CC[N+](CC)(CC)CCOc1cccc(OCC[N+](CC)(CC)CC)c1OCC[N+](CC)(CC)CC` [Gallamine triethiodide], for which the “eye size Z-score” value turned out to be 0.47.

For `CN[C@@H]1[C@H](O[C@H]2[C@H](O[C@H]3[C@H](O)[C@@H](O)[C@H](NC(=N)N)[C@@H](O)[C@@H]3NC(=N)N)O[C@@H](C)[C@]2(O)CO)O[C@@H](CO)[C@H](O)[C@H]1O` [Dihydrostreptomycin sulfate], the “eye size Z-score” value was -0.02.

Regarding `NCc1ccc(S(N)(=O)=O)cc1` [Mafenide hydrochloride], the “eye size Z-score” value was 0.32.

With `CCc1oc2ccccc2c1C(=O)c1cc(Br)c(O)c(Br)c1` [Benzbromarone], the “eye size Z-score” value turned out to be 0.33.

On to `CC/C(=C(\c1ccccc1)c1ccc(OCCN(C)C)cc1)c1ccccc1` [Tamoxifen citrate], for which the “eye size Z-score” value amounted to 0.47.

Take `CC(=O)Nc1ccc(C(=O)O)cc1` [Acedoben]: the “eye size Z-score” value is -0.18.

In the case of `CCCCC[C@H](O)/C=C/[C@H]1[C@H](O)CC(=O)[C@@H]1CCCCCCC(=O)O` [Alprostadil], the “eye size Z-score” value was -0.5.

Consider `CCN1CCC[C@H]1CNC(=O)c1c(O)c(Cl)cc(Cl)c1OC` [Raclopride], for which the “eye size Z-score” value was found to be 0.87.

As to `CC[C@@H]([C@H](C)O)n1ncn(-c2ccc(N3CCN(c4ccc(OC[C@@H]5CO[C@@](Cn6cncn6)(c6ccc(F)cc6F)C5)cc4)CC3)cc2)c1=O` [Posaconazole hydrate], the “eye size Z-score” value was -0.37.

With `CCOc1ccc(NC(C)=O)cc1` [Phenacetin], the “eye size Z-score” value came to 0.32.

Regarding `CN1CCC[C@@H]1CCO[C@](C)(c1ccccc1)c1ccc(Cl)cc1` [Clemastine fumarate], the “eye size Z-score” value is 0.29.

In the case of `CC(C(=O)O)c1ccc(C(=O)c2cccs2)cc1` (configuration not stated) [Suprofen], the “eye size Z-score” value was 0.12.

With `COc1cc2ncnc(Nc3ccc(F)c(Cl)c3)c2cc1OCCCN1CCOCC1` [Gefitinib], the “eye size Z-score” value is -0.58.

With `COc1ccc(C(=O)c2ccccc2O)c(O)c1` [Dioxybenzone], the “eye size Z-score” value is -1.21.

Turning to `CC(C)(C)NC[C@H](O)COc1ccccc1C1CCCC1` [Penbutolol sulfate], the “eye size Z-score” value was -0.45.

Regarding `Nc1nc2[nH]cc(CCc3ccc(C(=O)N[C@@H](CCC(=O)O)C(=O)O)cc3)c2c(=O)[nH]1` [Pemetrexed disodium], the “eye size Z-score” value is -0.01.

Take `CCN1CCN(Cc2ccc(Nc3ncc(F)c(-c4cc(F)c5nc(C)n(C(C)C)c5c4)n3)nc2)CC1` [Abemaciclib]: the “eye size Z-score” value was -0.25.

Turning to `COCCc1ccc(OCC(O)CNC(C)C)cc1` (stereo not drawn) [Metoprolol-(+)-tartrate salt], the “eye size Z-score” value came out at 0.3.

Turning to `COc1ccc(CN2CCN(C(c3ccc(F)cc3)c3ccc(F)cc3)CC2)c(OC)c1OC` [Lomerizine dihydrochloride], the “eye size Z-score” value worked out at 0.09.

For `Cc1cnc(C(=O)O)c[n+]1[O-]` [Acipimox], the “eye size Z-score” value came out at 0.

Turning to `CC(=O)Nc1cccc(O)c1` [Metacetamol], the “eye size Z-score” value is -0.21.

Turning to `O=C(O)[C@H]1/C(=C/CO)O[C@@H]2CC(=O)N21` [Clavulanate potassium salt], the “eye size Z-score” value was -0.63.

`O=C(OCCOCCO)c1ccccc1Nc1cccc(C(F)(F)F)c1` [Etofenamate]: the “eye size Z-score” value stood at 0.19.

On to `OCCN1C[C@H](O)[C@@H](O)[C@H](O)[C@H]1CO` [Miglitol], for which the “eye size Z-score” value was found to be 1.45.

Take `Cn1cnc([N+](=O)[O-])c1Sc1ncnc2[nH]cnc12` [Azathioprine]: the “eye size Z-score” value was -0.17.

On to `CC(=O)Oc1cc2c(s1)CCN(C(C(=O)C1CC1)c1ccccc1F)C2` (configuration not stated) [Prasugrel], for which the “eye size Z-score” value was determined as 0.99.

Regarding `CC(C)C(=O)Nc1ccc([N+](=O)[O-])c(C(F)(F)F)c1` [Flutamide], the “eye size Z-score” value came out at 0.33.

On to `O=C(O)CCCC[C@@H]1SC[C@@H]2NC(=O)N[C@@H]21` [Biotin], for which the “eye size Z-score” value was -0.62.

For `COCC(=O)Nc1c(I)c(C(=O)NCC(O)CO)c(I)c(C(=O)N(C)CC(O)CO)c1I` (configuration not stated) [Iopromide], the “eye size Z-score” value stood at 0.48.

As to `CCOC(=O)Nc1ccc(NCc2ccc(F)cc2)nc1N` [Flupirtine], the “eye size Z-score” value is 0.83.

`CC(C)=CCC1C(=O)N(c2ccccc2)N(c2ccccc2)C1=O` [Feprazone]: the “eye size Z-score” value was 1.02.

With `N[C@@H](CSCCCO)C(=O)O` [Fudosteine], the “eye size Z-score” value was 0.64.

As to `C[C@H](CCC(=O)O)[C@H]1CC[C@H]2[C@@H]3CC[C@@H]4C[C@H](O)CC[C@]4(C)[C@H]3CC[C@]12C` [Lithocholic acid], the “eye size Z-score” value was -0.2.

Consider `CC(=O)SCC(Cc1ccccc1)C(=O)NCC(=O)OCc1ccccc1` (configuration not stated) [Racecadotril], for which the “eye size Z-score” value is -0.52.

Consider `COC(=O)C1=C(C)NC(C)=C(C(=O)OC(C)C)C1c1cccc2nonc12` (configuration not stated) [Isradipine], for which the “eye size Z-score” value was -1.05.

Turning to `CN1CCC(OC(c2ccccc2)c2ccccc2)CC1` [Diphenylpyraline hydrochloride], the “eye size Z-score” value was -0.27.

Consider `O=C(Oc1cccc2cccnc12)c1ccccc1` [Benzoxiquine], for which the “eye size Z-score” value was 0.59.

Take `Clc1ccc(Nc2nnc(Cc3ccncc3)c3ccccc23)cc1` [Vatalanib]: the “eye size Z-score” value was 0.29.

In the case of `O=c1[nH]cnc2c1ncn2[C@H]1CC[C@@H](CO)O1` [Didanosine], the “eye size Z-score” value amounted to 0.4.

As for `CN(C/C=C/C#CC(C)(C)C)Cc1cccc2ccccc12` [Terbinafine], the “eye size Z-score” value was determined as 0.26.

`Nc1nc(O)c2ncn(CCC(CO)CO)c2n1` [Penciclovir]: the “eye size Z-score” value is -0.01.

With `Fc1ccc([C@@H]2CCNC[C@H]2COc2ccc3c(c2)OCO3)cc1` [Paroxetine hydrochloride], the “eye size Z-score” value was -0.32.

For `C[C@H]1COc2c(N3CCN(C)CC3)c(F)cc3c(=O)c(C(=O)O)cn1c23` [Levofloxacin], the “eye size Z-score” value stood at 0.53.

Consider `CN(C)CCCN1c2ccccc2CCc2ccccc21` [Imipramine hydrochloride], for which the “eye size Z-score” value is -0.19.

For the compound `NC(CO)C(=O)NNCc1ccc(O)c(O)c1O` (configuration not stated) [Benserazide hydrochloride], the “eye size Z-score” value was 0.85.

With `CCCC(=O)OCOC(=O)C1=C(C)NC(C)=C(C(=O)OC)C1c1cccc(Cl)c1Cl` (configuration not stated) [Clevidipine], the “eye size Z-score” value is -0.4.

Consider `O=C1c2cccc3c2[C@H](CCC3)CN1[C@@H]1CN2CCC1CC2` [Palonosetron hydrochloride], for which the “eye size Z-score” value is -0.07.

With `NCC[C@H](O)C(=O)N[C@@H]1C[C@H](N)[C@@H](O[C@H]2O[C@H](CN)[C@@H](O)[C@H](O)[C@H]2O)[C@H](O)[C@H]1O[C@H]1O[C@H](CO)[C@@H](O)[C@H](N)[C@H]1O` [Amikacin hydrate], the “eye size Z-score” value was 0.41.

With `O=C1Nc2ccccc2C1(c1ccc(O)cc1)c1ccc(O)cc1` [Oxyphenisatin], the “eye size Z-score” value came to 0.2.

In the case of `CC(C)CN(C[C@@H](O)[C@H](Cc1ccccc1)NC(=O)O[C@H]1CO[C@H]2OCC[C@H]21)S(=O)(=O)c1ccc(N)cc1` [Darunavir], the “eye size Z-score” value (female) is 0.04.

In the case of `O=C(O)CSCC(=O)NC1CCSC1=O` (configuration not stated) [Erdosteine], the “eye size Z-score” value was -0.37.

Consider `CCN(CC)CCNC(=O)COc1ccc(OC)cc1` [Mefexamide hydrochloride], for which the “eye size Z-score” value turned out to be 0.06.

For `Cc1nc2n(c(=O)c1CCN1CCC(c3noc4cc(F)ccc34)CC1)CCCC2O` (configuration not stated) [Paliperidone], the “eye size Z-score” value was 1.86.

As to `CCOc1ccc(NC(=O)CC(C)O)cc1` (configuration not stated) [Bucetin], the “eye size Z-score” value was 0.21.

With `Clc1ccc(C(Cn2ccnc2)OCc2csc3c(Cl)cccc23)c(Cl)c1` (configuration not stated) [Sertaconazole nitrate], the “eye size Z-score” value was -0.4.

As to `CC(=O)OCC1=C(C(=O)O)N2C(=O)[C@@H](NC(=O)Cc3cccs3)[C@H]2SC1` [Cephalothin sodium salt], the “eye size Z-score” value came out at 0.19.

For `CC1(C)S[C@@H]2[C@H](NC(=O)Cc3ccccc3)C(=O)N2[C@H]1C(=O)O` [Benzathine benzylpenicillin], the “eye size Z-score” value was -0.01.

For `CC1(C)S[C@@H]2[C@H](NC(=O)Cc3ccccc3)C(=O)N2[C@H]1C(=O)O` [Benzylpenicillin sodium], the “eye size Z-score” value is 0.04.

Consider `CCCCc1nc(Cl)c(CO)n1Cc1ccc(-c2ccccc2-c2nnn[nH]2)cc1` [Losartan], for which the “eye size Z-score” value is -0.24.

Turning to `O=C1CCC(N2C(=O)c3ccccc3C2=O)C(=O)N1` (configuration not stated) [Thalidomide], the “eye size Z-score” value is 0.34.

Consider `O=C1NCCN1CCN1CCC(c2cn(-c3ccc(F)cc3)c3ccc(Cl)cc23)CC1` [Sertindole], for which the “eye size Z-score” value is 0.33.

For the compound `O=C1[C@@H]2[C@H]3CC[C@H](C3)[C@@H]2C(=O)N1CCCCN1CCN(c2ncccn2)CC1` [Tandospirone], the “eye size Z-score” value is -1.06.

Turning to `O=C1OC(CN2CCOCC2)CN1/N=C/c1ccc([N+](=O)[O-])o1` (configuration not stated) [Furaltadone hydrochloride], the “eye size Z-score” value is -0.61.

Take `Cc1ccsc1C(=CCCN1CCC[C@@H](C(=O)O)C1)c1sccc1C` [Tiagabine hydrochloride]: the “eye size Z-score” value was determined as 0.38.

For the compound `CNCCCN1c2ccccc2CCc2ccccc21` [Desipramine hydrochloride], the “eye size Z-score” value was -1.1.

On to `CCOc1cc(N)c(Cl)cc1C(=O)NCC1CN(Cc2ccc(F)cc2)CCO1` (configuration not stated) [Mosapride], for which the “eye size Z-score” value is -0.13.

As to `CCC(C)n1ncn(-c2ccc(N3CCN(c4ccc(OCC5COC(Cn6cncn6)(c6ccc(Cl)cc6Cl)O5)cc4)CC3)cc2)c1=O` (configuration not stated) [Itraconazole], the “eye size Z-score” value was -0.56.

As to `Cc1cccc(Nc2ccccc2C(=O)O)c1C` [Mefenamic acid], the “eye size Z-score” value was 0.36.

Turning to `C[n+]1ccccc1/C=N/O` [Pralidoxime chloride], the “eye size Z-score” value is 0.01.

For the compound `C[C@H]1[C@H](OC(=O)CCC(=O)O)O[C@@H]2O[C@@]3(C)CC[C@H]4[C@H](C)CC[C@@H]1[C@@]24OO3` [Artesunate], the “eye size Z-score” value was determined as 0.03.

For `CCCCCCCCCCCCCCCCCCCCCC(=O)Nc1ccn([C@@H]2O[C@H](CO)[C@@H](O)[C@@H]2O)c(=O)n1` [Enocitabine], the “eye size Z-score” value worked out at 1.79.
